Test [1] deals with CNOT3 (human (endogenous in HEK293T)) (UniProt O75175). In words: affinity purification with mass spectrometry; immunoprecipitation with anti-CNOT2, -CNOT3, -CNOT6L or CNOT9 antibodies from HEK293T cells, elution with 1% SDS, LC-MS/MS.
In test [2] the target is CNOT2 (human (endogenous in HEK293T)) (UniProt Q9NZN8). Described as above.

No constants are given. Whether binding was seen depends on the method and setting. In cells and extracts the contact can be indirect. These calls come from enrichment with a bait or labelling near it, and not all partners need be listed.

B1: RNF219, ring finger protein 219 (protein, UniProt Q5W0B1 1-726)
chain: MAQTVQNVTLSLTLPITCHICLGKVRQPVICINNHVFCSICIDLWLKNNSQCPACRVPITPENPCKEIIGGTSESEPMLSHTVRKHLRKTRLELLHKEYEDEIDCLQKEVEELKSKNLSLESQIKTILDPLTLVQGNQNEDKHLVTDNPSKINPETVAEWKKKLRTANEIYEKVKDDVDKLKEANKKLKLENGGLVRENLRLKAEVDNRSPQKFGRFAVAALQSKVEQYERETNRLKKALERSDKYIEELESQVAQLKNSSEEKEAMNSICQTALSADGKGSKGSEEDVVSKNQGDSARKQPGSSTSSSSHLAKPSSSRLCDTSSARQESTSKADLNCSKNKDLYQEQVEVMLDVTDTSMDTYLEREWGNKPSDCVPYKDEELYDLPAPCTPLSLSCLQLSTPENRESSVVQAGGSKKHSNHLRKLVFDDFCDSSNVSNKDSSEDDISRSENEKKSECFSSPKTGFWDCCSTSYAQNLDFESSEGNTIANSVGEISSKLSEKSGLCLSKRLNSIRSFEMNRTRTSSEASMDAAYLDKISELDSMMSESDNSKSPCNNGFKSLDLDGLSKSSQGSEFLEEPDKLEEKTELNLSKGSLTNDQLENGSEWKPTSFFLLSPSDQEMNEDFSLHSSSCPVTNEIKPPSCLFQTEFSQGILLSSSHRLFEDQRFGSSLFKMSSEMHSLHNHLQSPWSTSFVPEKRNKNVNQSTKRKIQSSLSSASPSKATKS
For the molecule B1, the binding result in test [1] and in test [2] was “binds” throughout.

For the origin of these results see paper PMC12582992.
